This assay concerns P388 leukemia ip, CD2F1 mice, survival T/C. Kind of assay: NCI In Vivo Anticancer Drug Screen. Data for tumor model P388 Leukemia (intraperitoneal) in CD2F1 (CDF1) mice. Conditions: T/C endpoint: median survival time, higher T/C = longer survival.
Where [1] appears, read: dose: 100.0 mg/kg/injection, schedule: Q01DX005 (ip), vehicle: Klucel (hydroxypropylcellulose) (HPC).
Where [2] appears, read: dose: 200.0 mg/kg/injection, schedule: Q01DX005 (ip), vehicle: Klucel (hydroxypropylcellulose) (HPC).
Setting [3] is: dose: 50.0 mg/kg/injection, schedule: Q01DX005 (ip), vehicle: saline with Tween-80.
Where [4] appears, read: dose: 60.0 mg/kg/injection, schedule: Q01DX005 (ip), vehicle: saline with Tween-80.
Where [5] appears, read: dose: 400.0 mg/kg/injection, schedule: Q04DX003 (ip), vehicle: saline.
Where [6] appears, read: dose: 240.0 mg/kg/injection, schedule: Q01DX005 (ip), vehicle: saline with Tween-80.
[7] abbreviates: dose: 200.0 mg/kg/injection, schedule: Q01DX005 (ip), vehicle: saline with Tween-80.
[8] abbreviates: dose: 12.5 mg/kg/injection, schedule: Q01DX009 (ip), vehicle: other.
The mark [9] stands for this setting: dose: 400.0 mg/kg/injection, schedule: Q04DX003 (ip), vehicle: saline with Tween-80.
[10] abbreviates: dose: 100.0 mg/kg/injection, schedule: Q01DX005 (ip), vehicle: saline with Tween-80.
[11] abbreviates: dose: 120.0 mg/kg/injection, schedule: Q01DX005 (ip), vehicle: saline with Tween-80.

Each structure is given as a SMILES string. The list shows only some results of the screen, not a fair sample: it is rich in T/C values a quarter to a half above the control, in often repeated tests (any T/C) and in doses without a T/C. Other doses and runs of a compound stand elsewhere. T/C gives the treated animals as a percentage of the vehicle group. Some entries give survivors of the animals treated and no T/C: the source files T/C as zero there, which appears to mark a toxic dose or a test without result, not a measured value. Some doses without a T/C left all or most animals alive at the check, yet need not have been tolerated: survival well below the control is almost never listed, so the zero probably covers shortened survival too. Survivors were counted at the toxicity check, usually on the fifth day, unless a day is given; later deaths do not show. Schedules are NCI's codes, read here as Q, the interval in days (D) or hours (H), X, the number of doses. Some doses were run more than once; the values are given in rising order. Some structures stand for samples that the source files as different forms (salt, stereo form or complex); doses refer to the form tested. Brackets with × say how often a value occurs here. For survival time, this PubChem deposit counts one and a half times the control or more as active, and values a quarter to a half above the control carry no call in these data; other NCI protocols may use other cut-offs. Some T/C values carry the count of animals alive at the toxicity check (mostly the fifth day); without a count, all were alive then.

On to `c1ccc(-c2nc3ccccc3nc2-c2ccc(-c3ccc(-c4nc5ccccc5nc4-c4ccccc4)cc3)cc2)cc1`, for which the survivor count (dose: 12.5 mg/kg/injection, schedule: Q01DX009 (ip), vehicle: saline with Tween-80) is listed as 6 of 6 and the survivor count (dose: 50.0 mg/kg/injection, schedule: Q01DX009 (ip), vehicle: saline with Tween-80) is given as 6 of 6. For `COc1ccc2c(c1)C(c1cccc3ccccc13)OC2` (stereo not drawn), the survivor count runs as follows: under setting [1], 5 of 5; under setting [2], 6 of 6. As for `CC[C@@]12C[C@H]3CN(CCc4c([nH]c5ccccc45)[C@@](C(=O)OC)(c4cc5c(cc4OC)N(C)[C@H]4[C@@](O)(C(=O)OC)[C@H](OC(C)=O)[C@]6(CC)C=CCN7CC[C@]54[C@@H]76)C3O1)C2` (stereo partly drawn), for the setting “dose: 2.0 mg/kg/injection, schedule: Q01DX001 (ip), vehicle: distilled water + Tween-80”, the T/C was 128 % of control. For the compound `CC1=CC2N(C=C1)C(c1ccc(Cl)cc1)=NON2c1cc(C)ccn1` (stereo not drawn), the survivor count is 6 of 6 under setting [3] and 6 of 6 under setting [4]. Turning to `Cc1ccc(S(=O)(=O)C[n+]2ccc3ccccc3c2)cc1`, where the note is “dose: 200.0 mg/kg/injection, schedule: Q04DX003 (ip), vehicle: saline”, the T/C is 141 % of control. Moreover, under setting [5], the T/C was 147 % of control and the survivor count is 4 of 6. `COC(=O)C1=COC(OC2OC(CO)C(O)C(O)C2O)C2C(C)C(O)C(OC(=O)/C=C/c3ccc(OC)cc3)C12` (stereo not drawn): under “dose: 18.75 mg/kg/injection, schedule: Q01DX005 (ip), vehicle: Klucel (hydroxypropylcellulose) (HPC)”, the survivor count is recorded as 6 of 6.

As for `CC(C)Oc1ccc(C(=O)NS(=O)(=O)c2ccc(N=CC3C(=O)N(c4ccccc4)N(c4ccccc4)C3=O)cc2)cc1`, for the setting “dose: 50.0 mg/kg/injection, schedule: Q01DX009 (ip), vehicle: Klucel (hydroxypropylcellulose) (HPC)”, the survivor count was 6 of 6. As to `C[n+]1c(-c2ccc(/C=N/NC(=O)c3cc(O)c(C(=O)N/N=C/c4ccc(-c5cn6ccccc6[n+]5C)cc4)cc3O)cc2)cn2ccccc21`, under setting [6], the survivor count was 1 of 6. Consider `CCCCN1CSC2CCCCC21` (stereo not drawn), for which the T/C (dose: 200.0 mg/kg/injection, schedule: Q01DX005 (ip), vehicle: saline) was 130 % of control. On to `Clc1ccc2c(NCCCCCCNc3ccnc4cc(Cl)ccc34)ccnc2c1`, for which the survivor count under setting [7] is 3 of 5.

With `CC(C)CNN(CC(C)C)C(N)=O`, the survivor count (dose: 400.0 mg/kg/injection, schedule: Q01DX009 (ip), vehicle: saline with Tween-80) is recorded as 3 of 6. `O=C(Oc1ccccc1)c1cc(O)c(O)c(O)c1`: under “dose: 400.0 mg/kg/injection, schedule: Q01DX005 (ip), vehicle: saline with Tween-80”, the survivor count is given as 0 of 6. As to `O=C(Cc1nc2ccccc2[nH]1)NNC(=S)Nc1ccc(Cl)cc1`, the survivor count (dose: 240.0 mg/kg/injection, schedule: Q01DX005 (ip), vehicle: Klucel (hydroxypropylcellulose) (HPC)) is on record as 3 of 6. For the compound `COc1cccc2c1C(=O)c1c(O)c3c(c(O)c1C2=O)CC(NO)CC3OC1CC(NC(=O)C(F)(F)F)C(O)C(C)O1` (stereo not drawn), the T/C under setting [8] is 128 % of control. Take `N#CC(C#N)C1C=C/C(=N\O)C1` (stereo not drawn): the survivor count (dose: 100.0 mg/kg/injection, schedule: Q01DX009 (ip), vehicle: saline with Tween-80) is recorded as 2 of 6 and the survivor count (dose: 200.0 mg/kg/injection, schedule: Q01DX009 (ip), vehicle: saline with Tween-80) is 0 of 6.

`CC1(C)CC(C#N)CC(C)(C)N1O`: the survivor count runs as follows: (dose: 200.0 mg/kg/injection, schedule: Q04DX003 (ip), vehicle: Klucel (hydroxypropylcellulose) (HPC)) 0 of 6; (dose: 400.0 mg/kg/injection, schedule: Q04DX003 (ip), vehicle: Klucel (hydroxypropylcellulose) (HPC)) 0 of 6.

With `CC(=O)Oc1ccccc1`, the survivor count is reported as 0 of 6 (dose: 200.0 mg/kg/injection, schedule: Q04DX003 (ip), vehicle: saline with Tween-80) and 1 of 6 under setting [9]. For the compound `CC(C)(C)OC(=O)NC(COCc1ccccc1)C(=O)ON1C(=O)CCC1=O` (stereo not drawn), under setting [7], the survivor count is reported as 2 of 6.

As for `CCOC(=O)c1cc(NO)c(=O)c2ccc(OC)cc2c1`, under setting [10], the survivor count is 5 of 5. For the compound `O=C1OC(=O)C2C3OC(C(Br)C3Br)C12` (stereo not drawn), the survivor count under setting [2] is reported as 2 of 5. As to `CCN(CC)CCn1ncc(Sc2cc([N+](=O)[O-])ccc2N)c(Cl)c1=O`, the survivor count under setting [6] is 0 of 6.

`O=C1CS/C(=N/N=C/c2nc3ccccc3c(=O)n2-c2ccc(Cl)cc2)N1c1ccccc1`: the survivor count is, setting by setting: under setting [3], 6 of 6; under setting [10], 5 of 6.

`Cc1cccc(Cl)c1NCCN1CCCC1`: the survivor count runs as follows: under setting [11], 2 of 6; under setting [6], 0 of 6. Take `CCCCc1ccc(N2C(N)=NC(N)=NC2(C)C)cc1`: the survivor count was 3 of 6 (dose: 25.0 mg/kg/injection, schedule: Q01DX005 (ip), vehicle: Klucel (hydroxypropylcellulose) (HPC)); 0 of 6 and 1 of 6 (dose: 50.0 mg/kg/injection, schedule: Q01DX005 (ip), vehicle: Klucel (hydroxypropylcellulose) (HPC)); 0 of 6 (2×) under setting [1]; 0 of 6 (2×) under setting [2].

As to `COc1cc(C2c3cc4c(cc3C(OC(=O)CCC(=O)O)C3COC(=O)C23)OCO4)cc(OC)c1OC` (stereo not drawn), the T/C (dose: 100.0 mg/kg/injection, schedule: Q04DX002 (ip), vehicle: Klucel (hydroxypropylcellulose) (HPC)) was 132 % of control [5 of 6 alive]. Moreover, the survivor count by setting is: (dose: 200.0 mg/kg/injection, schedule: Q04DX002 (ip), vehicle: Klucel (hydroxypropylcellulose) (HPC)) 2 of 6; (dose: 400.0 mg/kg/injection, schedule: Q04DX002 (ip), vehicle: Klucel (hydroxypropylcellulose) (HPC)) 0 of 6.

`COC(=O)CC1(O)C=CC(=O)c2ccccc21` (stereo not drawn): the survivor count under setting [7] was 3 of 6. As to `CCOC(=O)C1C(=O)[C@H](C(=O)OC)C2CCCC3CCCC1N32` (stereo partly drawn), the survivor count under setting [6] was 5 of 6. On to `Cc1ccc(S(=O)(=O)N/N=C2\COC(C)C2)cc1` (stereo not drawn), for which, under setting [7], the survivor count is 6 of 6. In the case of `CCCCCCCCCCCCNC(=O)[C@@]1(O)[C@H](O)C2(CC)C=CCN3CCC4(c5cc([C@@]6(C(=O)OC)CC7CN(CCc8c6[nH]c6ccccc86)C[C@](O)(CC)C7)c(OC)cc5N(C)[C@H]41)C32` (stereo partly drawn), under “dose: 18.0 mg/kg/injection, schedule: Q01DX005 (ip), vehicle: saline”, the T/C was 135 % of control. Take `CCN(CC)CC(C)(C)C(=O)/C=C/c1ccc(Cl)cc1`: the survivor count (dose: 240.0 mg/kg/injection, schedule: Q01DX005 (ip), vehicle: saline) is 0 of 6. In the case of `COc1cccc2c1C(=O)c1c(O)c(CCl)cc(O)c1C2=O`, the survivor count under setting [4] is given as 4 of 6, the survivor count under setting [11] is recorded as 0 of 6 and the survivor count under setting [6] is reported as 0 of 6. For `NC(=S)N/N=C\c1ncccc1OCc1cccc(N)c1`, the T/C was 130 % of control under setting [8]; 125 % of control [5 of 6 alive] (dose: 25.0 mg/kg/injection, schedule: Q01DX009 (ip), vehicle: distilled water + Tween-80); 131 % of control (dose: 50.0 mg/kg/injection, schedule: Q01DX009 (ip), vehicle: distilled water + Tween-80); 127 and 141 % of control (dose: 50.0 mg/kg/injection, schedule: Q01DX009 (ip), vehicle: other); 127 % of control (dose: 100.0 mg/kg/injection, schedule: Q01DX009 (ip), vehicle: distilled water + Tween-80); 134 and 139 % of control (dose: 100.0 mg/kg/injection, schedule: Q01DX009 (ip), vehicle: other). Also, the survivor count by setting is: (dose: 200.0 mg/kg/injection, schedule: Q01DX009 (ip), vehicle: other) 5 of 6; (dose: 400.0 mg/kg/injection, schedule: Q01DX009 (ip), vehicle: other) 0 of 6 and 2 of 6. `CC(C)CNC1=CC(=O)c2ccccc2C1=O`: under setting [9], the survivor count was 1 of 6. Take `CC(/C=C/c1ccc(Cl)cc1)=N\NC(N)=S`: the survivor count is 0 of 6 under setting [4], 0 of 6 under setting [11] and 0 of 6 under setting [6]. Take `COc1ccccc1N=NC1=C2Nc3ccccc3N=C1N(c1ccccc1OC)C(=S)N2c1ccccc1C`: under setting [7], the survivor count is recorded as 0 of 6. For the compound `N=C(N)SC12CC3CC(CC(C3)C1)C2`, the survivor count is, setting by setting: under setting [11], 0 of 6; under setting [6], 0 of 6.
